Data published in the supplement of paper PMC10849652.
The list shows a part of the results.

Amino acid sequences for entries named in this document (tags omitted). A change or cut given only in a name is not applied to a line headed by its entry.
UniProt Q70UQ0: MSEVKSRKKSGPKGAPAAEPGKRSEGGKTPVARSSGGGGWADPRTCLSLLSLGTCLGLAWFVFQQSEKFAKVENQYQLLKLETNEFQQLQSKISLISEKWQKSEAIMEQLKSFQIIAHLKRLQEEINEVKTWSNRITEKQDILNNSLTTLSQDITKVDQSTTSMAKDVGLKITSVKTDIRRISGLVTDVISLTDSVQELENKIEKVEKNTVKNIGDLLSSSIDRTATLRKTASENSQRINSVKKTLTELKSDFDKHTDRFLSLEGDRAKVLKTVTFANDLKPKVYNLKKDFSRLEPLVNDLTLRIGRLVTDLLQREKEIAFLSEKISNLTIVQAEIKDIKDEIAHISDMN
UniProt Q8NBZ0, whole entry, looked up: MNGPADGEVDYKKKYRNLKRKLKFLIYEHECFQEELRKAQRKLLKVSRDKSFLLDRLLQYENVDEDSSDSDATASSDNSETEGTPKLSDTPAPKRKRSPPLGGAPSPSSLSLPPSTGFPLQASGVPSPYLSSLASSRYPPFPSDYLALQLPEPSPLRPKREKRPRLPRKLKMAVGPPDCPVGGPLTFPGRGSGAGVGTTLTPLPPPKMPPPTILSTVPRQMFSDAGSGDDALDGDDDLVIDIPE
UniProt Q9NSE4: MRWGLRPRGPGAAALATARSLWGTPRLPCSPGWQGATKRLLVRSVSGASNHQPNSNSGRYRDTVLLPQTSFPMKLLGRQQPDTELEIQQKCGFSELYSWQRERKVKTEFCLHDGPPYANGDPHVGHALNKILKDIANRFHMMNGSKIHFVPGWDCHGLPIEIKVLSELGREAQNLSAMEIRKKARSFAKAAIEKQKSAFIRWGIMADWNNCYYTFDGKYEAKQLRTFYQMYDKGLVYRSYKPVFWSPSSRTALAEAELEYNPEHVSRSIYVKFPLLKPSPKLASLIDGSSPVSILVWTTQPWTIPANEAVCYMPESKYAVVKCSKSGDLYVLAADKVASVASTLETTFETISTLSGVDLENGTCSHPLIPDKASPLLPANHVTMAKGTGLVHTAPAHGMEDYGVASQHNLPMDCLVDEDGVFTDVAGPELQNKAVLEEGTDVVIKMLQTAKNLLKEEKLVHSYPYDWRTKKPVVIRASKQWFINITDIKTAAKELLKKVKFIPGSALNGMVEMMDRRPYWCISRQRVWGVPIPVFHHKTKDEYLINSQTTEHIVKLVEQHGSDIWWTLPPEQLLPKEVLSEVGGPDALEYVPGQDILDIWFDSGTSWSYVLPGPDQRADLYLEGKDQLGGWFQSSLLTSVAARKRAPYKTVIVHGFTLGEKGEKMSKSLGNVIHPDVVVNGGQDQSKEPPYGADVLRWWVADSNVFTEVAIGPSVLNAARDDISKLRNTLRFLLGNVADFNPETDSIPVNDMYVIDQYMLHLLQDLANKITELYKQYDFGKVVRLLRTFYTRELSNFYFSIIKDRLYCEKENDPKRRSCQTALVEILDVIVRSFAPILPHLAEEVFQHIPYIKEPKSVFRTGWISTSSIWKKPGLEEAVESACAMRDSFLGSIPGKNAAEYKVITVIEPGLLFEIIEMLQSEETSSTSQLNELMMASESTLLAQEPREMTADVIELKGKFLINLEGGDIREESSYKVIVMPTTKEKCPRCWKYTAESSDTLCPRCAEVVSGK
UniProt Q9H7X7: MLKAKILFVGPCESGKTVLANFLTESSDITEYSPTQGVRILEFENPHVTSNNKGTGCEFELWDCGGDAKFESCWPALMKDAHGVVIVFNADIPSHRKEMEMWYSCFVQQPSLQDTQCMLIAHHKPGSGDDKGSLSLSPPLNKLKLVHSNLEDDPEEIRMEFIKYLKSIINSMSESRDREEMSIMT
UniProt Q6PI98, whole entry, looked up: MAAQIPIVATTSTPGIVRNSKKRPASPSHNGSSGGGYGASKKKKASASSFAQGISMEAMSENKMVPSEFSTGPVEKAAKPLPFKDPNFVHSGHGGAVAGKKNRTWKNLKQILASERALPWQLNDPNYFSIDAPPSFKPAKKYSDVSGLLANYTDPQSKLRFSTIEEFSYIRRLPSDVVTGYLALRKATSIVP
UniProt Q8WYH8, whole entry, looked up: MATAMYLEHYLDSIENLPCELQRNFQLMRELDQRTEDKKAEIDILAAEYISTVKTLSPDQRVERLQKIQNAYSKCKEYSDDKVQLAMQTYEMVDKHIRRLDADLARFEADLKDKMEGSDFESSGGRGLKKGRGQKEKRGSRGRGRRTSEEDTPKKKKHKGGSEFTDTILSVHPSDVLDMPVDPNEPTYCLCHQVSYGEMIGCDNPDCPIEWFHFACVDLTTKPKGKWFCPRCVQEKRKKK
UniProt Q8WYA0: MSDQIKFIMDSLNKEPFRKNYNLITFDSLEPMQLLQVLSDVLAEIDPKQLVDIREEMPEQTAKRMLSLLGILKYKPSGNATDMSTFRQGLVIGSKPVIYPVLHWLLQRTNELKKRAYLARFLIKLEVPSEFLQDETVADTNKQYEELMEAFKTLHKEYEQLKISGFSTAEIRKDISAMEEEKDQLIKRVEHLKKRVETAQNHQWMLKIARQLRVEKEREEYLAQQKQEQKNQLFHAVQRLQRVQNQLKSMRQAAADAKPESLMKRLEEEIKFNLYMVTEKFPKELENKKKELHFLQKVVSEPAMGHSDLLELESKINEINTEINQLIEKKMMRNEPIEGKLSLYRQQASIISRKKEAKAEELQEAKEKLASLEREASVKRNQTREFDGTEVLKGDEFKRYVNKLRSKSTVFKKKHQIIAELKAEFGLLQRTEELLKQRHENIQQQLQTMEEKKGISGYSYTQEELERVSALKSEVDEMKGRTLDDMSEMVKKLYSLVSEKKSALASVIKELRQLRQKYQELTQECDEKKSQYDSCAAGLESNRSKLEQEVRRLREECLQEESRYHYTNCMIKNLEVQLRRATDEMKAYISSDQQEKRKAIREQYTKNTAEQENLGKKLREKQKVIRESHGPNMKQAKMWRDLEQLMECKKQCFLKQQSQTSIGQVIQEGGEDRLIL
UniProt Q9BYX4: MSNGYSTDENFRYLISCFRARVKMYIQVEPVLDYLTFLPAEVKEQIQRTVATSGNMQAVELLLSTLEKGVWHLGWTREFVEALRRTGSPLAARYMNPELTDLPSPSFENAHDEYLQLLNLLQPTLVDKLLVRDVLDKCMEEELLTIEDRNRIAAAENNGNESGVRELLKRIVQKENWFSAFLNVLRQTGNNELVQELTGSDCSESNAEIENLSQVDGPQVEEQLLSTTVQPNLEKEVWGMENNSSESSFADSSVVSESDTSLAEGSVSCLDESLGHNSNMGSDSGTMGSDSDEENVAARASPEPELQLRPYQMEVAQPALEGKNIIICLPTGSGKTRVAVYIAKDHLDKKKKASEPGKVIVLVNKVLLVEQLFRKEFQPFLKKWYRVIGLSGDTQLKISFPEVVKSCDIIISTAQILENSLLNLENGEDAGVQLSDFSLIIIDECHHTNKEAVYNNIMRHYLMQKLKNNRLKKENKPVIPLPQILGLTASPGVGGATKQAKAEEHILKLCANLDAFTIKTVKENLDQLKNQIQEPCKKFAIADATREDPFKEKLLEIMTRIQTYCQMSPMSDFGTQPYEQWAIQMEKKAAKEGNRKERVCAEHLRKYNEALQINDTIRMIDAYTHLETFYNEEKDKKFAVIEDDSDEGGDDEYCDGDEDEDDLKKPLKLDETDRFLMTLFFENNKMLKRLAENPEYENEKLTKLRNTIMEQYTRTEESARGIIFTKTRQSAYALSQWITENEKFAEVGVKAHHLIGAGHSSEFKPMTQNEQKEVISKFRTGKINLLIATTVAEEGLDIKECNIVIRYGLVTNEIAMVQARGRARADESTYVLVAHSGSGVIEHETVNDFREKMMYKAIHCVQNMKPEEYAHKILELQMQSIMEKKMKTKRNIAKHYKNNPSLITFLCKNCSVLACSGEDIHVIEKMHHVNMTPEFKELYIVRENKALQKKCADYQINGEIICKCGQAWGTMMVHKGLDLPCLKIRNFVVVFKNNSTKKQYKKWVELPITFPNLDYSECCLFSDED

Assays:
Assay in all cases: log2 fold change, soluble protein after heating vs DMSO (PISA); higher = thermal stabilisation; K562 lysate, 10 uM; active = over 0.2 and 3.5 SD of the protein, either way, in both replicates (recomputed)
[1] = compound: C1=CC=C(C=C1)[C@H](COC2=CC3=C(C=C2)NC(=O)N3)NC(=O)C4=CC=CN(C4=O)CC5=CC(=C(C=C5)F)F
Method in brief: (§1)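 Log-two fold change in thermal stability relative to solvent controls is reported from duplicates. For each sample, crude K562 extract from dounce-homogenised pellets in PBS pH 7.4 with 1 mM MgCl2, at 1 mg/mL protein, was treated with 10 μM compound for 30 min. Aliquots heated for 3 min across 48°C-58°C were pooled, brought to 0.5% NP-40 at 4°C and cleared at 21,000xg for 90 min. The supernatant was quantified by TMTpro 16plex LC-MS/MS with channel sums equalised.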

[2] = compound: CC1=C(SC2=C1C(=N[C@H](C3=NN=C(N32)C)CC(=O)N)C4=CC=C(C=C4)Cl)C
Method in brief: as §1

[3] = compound: CC1=C2C(=CC=C1)N=C(N(C2=O)C3=CC=CC=C3C)CN4C=NC5=C(N=CN=C54)N
Method in brief: as §1

[4] = compound: Cc1sc2c(c1C)C(c1ccc(Cl)cc1)=N[C@@H](CC(=O)OC(C)(C)C)c1nnc(C)n1-2
Method in brief: as §1

[5] = compound: c1ccc([C@@H]2C[C@H]2NC2CCNCC2)cc1
Method in brief: as §1

Measured: log2 fold change

IKBIP (UniProt Q70UQ0)
inactive: [1] 0 | [2] -0.005 | [3] 0.05 | [4] -0.026 | [5] -0.019

HYOU1, A0A494C039
inactive: [1] 0.116 | [2] -0.026 | [4] -0.121 | [5] 0.042

INO80E (UniProt Q8NBZ0)
inactive: [1] 0.084 | [2] -0.022 | [4] -0.036 | [5] -0.093

Pulled one by one from the entries so far, two records:
INO80E (UniProt Q8NBZ0)
inactive: [1] 0.084 | [2] -0.022 | [4] -0.036 | [5] -0.093

IKBIP (UniProt Q70UQ0)
inactive: [1] 0 | [2] -0.005 | [3] 0.05 | [4] -0.026 | [5] -0.019

Additional records follow.

IARS2 (UniProt Q9NSE4)
inactive: [1] 0.004 | [2] 0.013 | [3] -0.006 | [4] 0.028 | [5] 0.119

IFT22 (UniProt Q9H7X7)
inactive: [1] 0.06 | [2] 0.137 | [4] -0.153

INO80C isoform 4 (UniProt Q6PI98)
inactive: [1] -0.188 | [2] 0.034 | [4] -0.215

HUWE1 (UniProt Q7Z6Z7)
inactive: [1] 0.009 | [2] 0.003 | [3] 0.015 | [4] -0.024 | [5] -0.004

ING5 (UniProt Q8WYH8)
inactive: [1] -0.056 | [2] 0.016 | [4] -0.212

IFT81 (UniProt Q8WYA0)
inactive: [1] 0.011 | [2] 0.016 | [5] 0.106

IFIH1 (UniProt Q9BYX4)
inactive: [1] 0.059 | [2] -0.074
